# Measurements reported in PubChem BioAssay AID504648 (National Center for Advancing Translational Sciences (NCATS), 2011).
# About 610 (0.16%) of roughly 390,000 compounds were called active. This list was built around the results that the source calls inconclusive (neither active nor inactive); the mix of calls is not that of the screen. Calls come from the whole dose curve; as a rule, active = well fitted inhibition curve with a large enough effect; inconclusive = small, poorly fitted or top-dose-only effect, or effect the other way, or another doubt; inactive = no such curve, though single readings can be large or run the other way. Potencies of inconclusive entries are doubtful fits and often do not repeat.
# Assay: Nrf2 qHTS screen for inhibitors: counterscreen for cytotoxicity
# Conditions: A549 ARE-Fluc cells, CellTiter-Fluor viability, 18-24 h; series mostly up to 46 µM
# Outline: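 Cytotoxicity counterscreen: CellTiter-Fluor fluorescence was measured in A549 ARE_Fluc cells after 18-24 h of compound exposure in a concentration series. The subsequent BugLite luminescent read reports ARE-luciferase activity.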
# Potency is the fitted concentration of half-maximal effect.
row,Compound,Potency
1,COc1cc(-c2cc(-c3ccccc3)nc(SCC(=O)Nc3nccs3)c2C#N)cc(OC)c1OC,"inconclusive: 20.6 µM [falling, partial curve, poor fit]"
2,CCOc1cccc(/C=C/c2ccc3cccc(O)c3n2)c1OC,inactive
3,O=S(=O)(c1ccccc1)c1nnn2c1nc(NC1CCN(Cc3ccccc3)CC1)c1ccccc12,"inconclusive: 20.6 µM [falling, single point]"
4,COc1ccc(NC(=O)COc2ccccc2F)cc1S(=O)(=O)N1CCCCC1,inactive
5,Cc1oc(-c2ccccc2F)nc1CSCC(=O)NCCc1ccccc1,"inconclusive: 29.1 µM [falling, single point]"
6,COC(=O)c1ccc(CN(Cc2ccc(OC)c(OC)c2)S(=O)(=O)c2cc(C(=O)Nc3cccc(C)c3)ccc2F)cc1,inactive
7,O=S(=O)(NCCc1nnc2ccc(SCc3c(F)cccc3Cl)nn12)c1ccccc1,"inconclusive: 32.6 µM [falling, partial curve, poor fit]"
8,CCOc1ccc(NC(=S)NC(=O)/C=C/c2ccc(OC)c(OC)c2)c([N+](=O)[O-])c1,"inconclusive: 20.6 µM [falling, single point]"
9,CCOc1cc2[nH]c(=S)n(CCCCC(=O)NCc3ccco3)c(=O)c2cc1OCC,inactive
10,CC(=O)c1ccc(NC(=O)N2CCc3ccccc3C2)cc1,inactive
11,CN(CC(=O)Nc1ccc(F)cc1)C(=O)c1ccc(-c2ccc(Cl)cc2)o1,"inconclusive: 20.6 µM [falling, single point]"
12,COc1ccc2c(c1)S/C(=C\C(=O)c1ccncc1)N2C,"inconclusive: 13 µM [falling, partial curve, poor fit]"
13,Cc1ccc(S(=O)(=O)c2nc(C(C)(C)C)oc2N2CCOCC2)cc1,inactive
14,COc1ccc(-n2c(=S)[nH]c3cc(C(=O)Nc4ccc(OC)c(OC)c4)ccc3c2=O)cc1,inactive
15,Cc1ccc(C)c(N(C)S(=O)(=O)c2ccc3[nH]cc(C(=O)NC4CCCC4)c(=O)c3c2)c1,"inconclusive: 29.1 µM [falling, partial curve, poor fit]"
16,CCc1ccc(/C=c2\s/c(=C\C(=O)C(C)(C)C)[nH]c2=O)cc1,"inconclusive: 18.4 µM [falling, single point]"
17,COc1cc(Cl)c(CN2CCCC(CO)(Cc3ccccc3)C2)cc1OC (centres undefined),"inconclusive: 11.6 µM [falling, partial curve, poor fit]"
18,CN1CCN(C2=Cc3ccc(Cl)cc3Sc3ccc(F)cc32)CC1,"inconclusive: 29.1 µM [falling, partial curve, poor fit]"
19,CCN(Cc1ccccc1)S(=O)(=O)c1ccc2[nH]c3c(c2c1)CCCCC3,"inconclusive: 29.1 µM [falling, partial curve, poor fit]"
20,Cc1c(C(=O)OCCOc2ccccc2)[nH]c2c1C(=O)CC(c1ccccc1Cl)C2 (centres undefined),inactive
21,C=C1SC(Nc2c(C)cccc2C)=NC12CCCCC2,"inconclusive: 29.1 µM [falling, partial curve, poor fit]"
22,Cc1nn(-c2ccccc2)c2c1C(=O)N(Cc1ccccc1)C(=O)C(C)(C)C2,inactive
23,Cc1nn(-c2ccccc2)c(Cl)c1/C=N/NC(=O)c1ccco1,inactive

# Random excerpt: three records from the list, in no set order.
row,Compound,Potency
10,CC(=O)c1ccc(NC(=O)N2CCc3ccccc3C2)cc1,inactive
15,Cc1ccc(C)c(N(C)S(=O)(=O)c2ccc3[nH]cc(C(=O)NC4CCCC4)c(=O)c3c2)c1,"inconclusive: 29.1 µM [falling, partial curve, poor fit]"
23,Cc1nn(-c2ccccc2)c(Cl)c1/C=N/NC(=O)c1ccco1,inactive

# The results go on.

row,Compound,Potency
1,Cc1cc(C)c(-n2[nH]nnc2=S)c(C)c1,"inconclusive: 16.4 µM [falling, partial curve, poor fit]"
2,NS(=O)(=O)c1ccc(CCNCc2ccccc2OCc2ccc(F)cc2)cc1,"inconclusive: 29.1 µM [falling, single point]"
3,Cc1ccc(-n2cnc3cc(C(=O)NC4CCCCCC4)ccc32)cc1Cl,inactive
4,CCNc1nc(NC(C)(C)C)nc(N2CCCCC2)n1,"inconclusive: 20.6 µM [falling, single point]"
5,COc1ccc(N(CC(=O)NCCSCc2ccco2)S(=O)(=O)c2ccccc2)cc1Cl,"inconclusive: 18.4 µM [falling, partial curve, poor fit]"
6,Cc1ccc(S(=O)(=O)N2CCC(C(=O)NCc3ccncc3)CC2)cc1,"inconclusive: 25.9 µM [activator, partial curve, poor fit]"
7,CCOc1c(OC(C)=O)ccc(/C=C/c2ccc3cccc(OC(C)=O)c3n2)c1[N+](=O)[O-],inactive
8,Cc1ccc(-c2csc3nc4ccc(C(=O)NCCO)cc4c(=O)n23)cc1,inactive
9,CC(=O)N1CCc2c(sc3c2c(=O)n(Cc2ccccc2)c(=O)n3Cc2ccccc2Cl)C1,"inconclusive: 25.9 µM [falling, partial curve, poor fit]"
10,O=C(CSc1nccn1Cc1ccco1)Nc1ccccc1,inactive
11,Cc1ccc(N2C(=O)c3cccc(Oc4ccc(Cl)cc4)c3C2=O)c(C)c1,"inconclusive: 18.4 µM [activator, partial curve, poor fit]"
12,CCCCC1=CC2=CC(=O)C(C)(OC(=O)C3CCCC3)C(=O)C2=CO1 (centres undefined),inactive
13,COc1cccc(CNC(=O)Cn2c(=O)nc(-c3ccccc3F)c3cc(Cl)ccc32)c1,"inconclusive: 18.4 µM [falling, partial curve, poor fit]"
14,CC(NC(=O)Nc1nnc(C(F)(F)F)s1)(C(F)(F)F)C(F)(F)F,active: 16.4 µM
15,FC(F)(F)c1cc(NC2CCCCC2)ccn1,"inconclusive: 25.9 µM [activator, partial curve]"
16,Cc1ccc(S(=O)(=O)NCc2cccnc2)cc1C(=O)NC1CCCCC1,"inconclusive: 3.66 µM [activator, full curve, poor fit]"
17,CC(C)(C)c1ccc(C(=O)Nc2ccc(NC(=O)c3ccco3)cc2)cc1,"inconclusive: 18.4 µM [falling, single point]"
18,OCC1OC(n2cnc3c(NCc4ccco4)ncnc32)C(O)C1O (centres undefined),"inconclusive: 9.2 µM [falling, partial curve, poor fit]"
19,COc1ccc(NC(=O)c2ccco2)cc1NC(=O)c1cc(Br)ccc1Cl,inactive
20,COc1ccc(C(=O)NCCNc2ccc([N+](=O)[O-])cc2)cc1,"inconclusive: 20.6 µM [falling, single point]"
21,C=C1CC2(OC1=O)c1ccccc1CCc1ccccc12,"inconclusive: 18.4 µM [falling, single point]"
22,Cc1ccc2ccc3c(c2n1)NS(=O)(=O)c1ccccc1-3,"inconclusive: 16.4 µM [falling, single point]"
23,O=[N+]([O-])c1c(Nc2cccc(O)c2)cc(Cl)c2nonc12,"inconclusive: 29.1 µM [falling, single point]"

row,Compound,Potency
1,CC1CCCC(C)N1CCCNC(=O)c1nn(C)c2c1CSc1ccccc1-2 (centres undefined),inactive
2,CC(NC(=O)CNC(=O)c1ccco1)c1ccccc1 (centres undefined),inactive
3,N#C/C(=C\c1ccc(N2CCOCC2)c([N+](=O)[O-])c1)c1nc2ccccc2[nH]1,"inconclusive: 23.1 µM [falling, partial curve, poor fit]"
4,COc1ccc(C2c3ccccc3Oc3ncn(CCN4CCOCC4)c(=N)c32)cc1OC (centres undefined),inactive
5,COc1ccccc1NC(=S)N1CCN(c2ccc(F)cc2)CC1,"inconclusive: 29.1 µM [activator, single point]"
6,CCN(CC)CCOc1ccc(/C(=C(/Cl)c2ccccc2)c2ccccc2)cc1,"inconclusive: 29.1 µM [falling, partial curve, poor fit]"
7,COc1ccc(C(=O)N2CCN(Cc3ccccc3)CC2)cc1[N+](=O)[O-],"inconclusive: 6.51 µM [activator, single point]"
8,O=S(=O)(c1ccc2c(c1)OCCO2)N1CCN(S(=O)(=O)c2c(F)cccc2F)CC1,"inconclusive: 16.4 µM [activator, partial curve, poor fit]"
9,C/C(=N\Nc1nc(-c2ccccn2)nc2ccccc12)c1ccc(F)cc1,inactive
10,CCOc1ccc(S(=O)(=O)N(CC(=O)Nc2ccc(OC)c(Cl)c2)c2ccccc2)cc1,inactive
11,CC(C)(C)n1nnnc1C(c1cccs1)N(Cc1ccc(Cl)cc1)CC1CCCO1 (centres undefined),"inconclusive: 32.6 µM [falling, partial curve, poor fit]"
12,Cc1cc(C)n(CC(=O)Nc2cccc(C(F)(F)F)c2)n1,inactive
13,CC(C)NC(=O)C1CCN(Cc2cccc(Oc3ccccc3)c2)CC1,"inconclusive: 6.51 µM [activator, partial curve, poor fit]"
14,COc1ccccc1OCC(=O)N/N=C/C=C/c1ccc([N+](=O)[O-])o1,"inconclusive: 25.9 µM [falling, single point]"
15,FC(F)Sc1ccc(NC(=S)NC2CCCCC2)cc1,inactive
16,CCOC(=O)c1cc(-c2ccc(F)cc2)nc2c1c(=O)[nH]c(=O)n2Cc1ccccc1,inactive
17,CC1(c2cccc(Br)c2)NC(=O)N(CC(=O)c2ccc3c(c2)OCCO3)C1=O (centres undefined),inactive
18,Cc1cccc(NC(=O)Cn2c(=O)n(CC3CCC(C(=O)NCCc4ccccc4)CC3)c(=O)c3ccccc32)c1C (centres undefined),inactive
19,OC(COc1ccc2c(c1)CCC2)CN1CCN(c2cccc(Cl)c2)CC1 (centres undefined),"inconclusive: 32.6 µM [falling, single point]"
20,COCC(C)NC(=O)NC(=O)c1ccc(Cl)cc1 (centres undefined),"inconclusive: 6.51 µM [falling, single point]"
21,CCN(c1ccccc1)S(=O)(=O)c1cc(C(=O)NCC(c2ccco2)N2CCCCC2)ccc1C (centres undefined),"inconclusive: 20.6 µM [falling, partial curve, poor fit]"
22,COc1ccc2oc(C(=O)OCC(=O)N(Cc3ccccc3)C(C)C)c(C)c2c1,inactive
23,CC(C)C[C@H]1CN=C(N(C)C)N1CC1CCCCCC1,"inconclusive: 18.4 µM [falling, partial curve, poor fit]"
